Results are given in words; binding and its absence hold for the method and conditions named. Some binding calls cover weakened binding; strength is not graded here.
How the values were obtained:
[1] = molecular target: c-MET on the surface of HT29 and HCT-116 human colon cancer cells (human) (UniProt P08581); experiment: flow cytometry on HT29 cells
[2] = molecular target: c-MET on the surface of HT29 and HCT-116 human colon cancer cells (human) (UniProt P08581); experiment: flow cytometry on HCT-116 cells
[3] = molecular target: c-MET on the surface of HT29 and HCT-116 human colon cancer cells (human) (UniProt P08581); experiment: flow cytometry on HT29 and HCT-116 cells, fold MFI over secondary-antibody only control

The chains behind the UniProt entries cited, without tags or fusion partners. Where a name states a change or a piece, a line headed by the entry shows the natural chain unless it says otherwise.
UniProt P08581: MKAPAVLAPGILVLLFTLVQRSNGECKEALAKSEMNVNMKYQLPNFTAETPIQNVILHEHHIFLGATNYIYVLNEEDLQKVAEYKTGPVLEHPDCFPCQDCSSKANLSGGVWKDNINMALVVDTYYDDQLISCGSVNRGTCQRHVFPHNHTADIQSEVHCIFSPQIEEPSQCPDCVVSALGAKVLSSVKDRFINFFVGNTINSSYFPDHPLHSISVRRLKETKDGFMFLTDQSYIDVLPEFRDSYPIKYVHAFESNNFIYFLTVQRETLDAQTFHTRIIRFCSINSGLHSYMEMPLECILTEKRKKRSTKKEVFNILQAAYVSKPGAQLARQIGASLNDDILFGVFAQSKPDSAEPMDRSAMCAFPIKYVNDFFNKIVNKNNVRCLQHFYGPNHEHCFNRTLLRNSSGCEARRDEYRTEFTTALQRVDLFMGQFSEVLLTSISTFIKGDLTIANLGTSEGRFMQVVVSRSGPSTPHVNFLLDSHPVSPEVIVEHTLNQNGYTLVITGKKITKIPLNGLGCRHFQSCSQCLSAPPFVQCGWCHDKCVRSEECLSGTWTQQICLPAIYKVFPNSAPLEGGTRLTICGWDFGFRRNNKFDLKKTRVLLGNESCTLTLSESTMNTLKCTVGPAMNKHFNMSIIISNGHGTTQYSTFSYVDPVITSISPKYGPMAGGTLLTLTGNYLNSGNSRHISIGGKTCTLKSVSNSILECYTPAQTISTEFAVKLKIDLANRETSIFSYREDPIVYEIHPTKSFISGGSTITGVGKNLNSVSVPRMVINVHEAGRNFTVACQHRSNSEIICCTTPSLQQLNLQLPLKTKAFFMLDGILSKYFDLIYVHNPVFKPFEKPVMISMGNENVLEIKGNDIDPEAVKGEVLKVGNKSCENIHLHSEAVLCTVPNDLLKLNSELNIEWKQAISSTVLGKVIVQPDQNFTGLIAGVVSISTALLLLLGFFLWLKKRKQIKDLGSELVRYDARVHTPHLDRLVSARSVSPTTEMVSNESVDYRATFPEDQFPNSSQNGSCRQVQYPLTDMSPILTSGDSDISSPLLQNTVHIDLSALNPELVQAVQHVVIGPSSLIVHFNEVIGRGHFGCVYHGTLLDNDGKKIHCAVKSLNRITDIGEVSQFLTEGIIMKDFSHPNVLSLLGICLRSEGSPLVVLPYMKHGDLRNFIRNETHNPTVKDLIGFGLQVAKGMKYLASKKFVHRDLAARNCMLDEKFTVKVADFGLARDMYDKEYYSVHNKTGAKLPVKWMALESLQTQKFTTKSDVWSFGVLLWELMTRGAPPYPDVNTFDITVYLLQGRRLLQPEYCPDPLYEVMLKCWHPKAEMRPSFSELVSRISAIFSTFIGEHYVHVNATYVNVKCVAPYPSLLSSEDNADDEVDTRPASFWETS

binding [1]: binds
binding [2]: binds
binding [3]: binds
B1: anti-c-MET monoclonal antibody ABT-700 (parental monoclonal antibody of A49MI-Duobody-TriNKET-ABT-700) (antibody, human IgG1, kappa, V domains shown)
VH: QVQLVQSGAEVKKPGASVKVSCKASGYIFTAYTMHWVRQAPGQGLEWMGWIKPNNGLANYAQKFQGRVTMTRDTSISTAYMELSRLRSDDTAVYYCARSEITTEFDYWGQGTLVTVSS
VL: DIVMTQSPDSLAVSLGERATINCKSSESVDSYANSFLHWYQQKPGQPPKLLIYRASTRESGVPDRFSGSGSGTDFTLTISSLQAEDVAVYYCQQSKEDPLTFGGGTKVEIKR

— US20220153848A1
